Data reported in PMC6851226.
No constants are given. Whether binding was seen depends on the method and setting. Binding seen in cells or lysates may run through a third protein. Some binding calls cover weakened binding; strength is not graded here.

The chains behind the UniProt entries cited, without tags or fusion partners. Residues count along the entry.
UniProt P29317, residues 24-976: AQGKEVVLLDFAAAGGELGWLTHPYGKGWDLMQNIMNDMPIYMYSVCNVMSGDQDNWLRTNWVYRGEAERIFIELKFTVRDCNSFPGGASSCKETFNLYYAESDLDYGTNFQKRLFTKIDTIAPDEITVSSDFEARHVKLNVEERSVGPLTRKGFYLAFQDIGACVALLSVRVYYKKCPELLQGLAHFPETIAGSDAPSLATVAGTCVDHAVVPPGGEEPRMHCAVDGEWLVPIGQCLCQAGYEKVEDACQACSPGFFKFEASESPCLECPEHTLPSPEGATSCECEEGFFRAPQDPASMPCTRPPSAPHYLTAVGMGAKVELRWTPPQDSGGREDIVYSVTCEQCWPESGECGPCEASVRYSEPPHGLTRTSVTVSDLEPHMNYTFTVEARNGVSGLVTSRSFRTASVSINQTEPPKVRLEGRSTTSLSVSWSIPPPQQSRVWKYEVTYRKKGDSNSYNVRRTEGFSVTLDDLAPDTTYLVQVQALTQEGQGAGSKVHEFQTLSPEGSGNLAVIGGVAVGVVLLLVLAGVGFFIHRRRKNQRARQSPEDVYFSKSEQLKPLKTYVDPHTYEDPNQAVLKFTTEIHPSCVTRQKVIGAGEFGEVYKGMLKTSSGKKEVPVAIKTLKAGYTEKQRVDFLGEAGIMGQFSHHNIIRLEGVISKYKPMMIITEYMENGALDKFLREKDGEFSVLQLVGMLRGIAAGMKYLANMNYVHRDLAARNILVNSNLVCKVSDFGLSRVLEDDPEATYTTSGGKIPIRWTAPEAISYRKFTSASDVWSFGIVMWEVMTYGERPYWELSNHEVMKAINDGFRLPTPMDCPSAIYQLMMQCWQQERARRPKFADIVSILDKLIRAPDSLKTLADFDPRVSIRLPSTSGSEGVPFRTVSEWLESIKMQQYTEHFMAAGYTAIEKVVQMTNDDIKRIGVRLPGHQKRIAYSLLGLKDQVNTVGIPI

What was measured:
[1] = biological target: T1, EphA3 (human (endogenous in primary GBM cultures)) (UniProt P29320); test: co-IP; immunoprecipitation of EphA3 in GBM cells; EGFR detected in the precipitate (Online Resource 5d)
T1 sequence: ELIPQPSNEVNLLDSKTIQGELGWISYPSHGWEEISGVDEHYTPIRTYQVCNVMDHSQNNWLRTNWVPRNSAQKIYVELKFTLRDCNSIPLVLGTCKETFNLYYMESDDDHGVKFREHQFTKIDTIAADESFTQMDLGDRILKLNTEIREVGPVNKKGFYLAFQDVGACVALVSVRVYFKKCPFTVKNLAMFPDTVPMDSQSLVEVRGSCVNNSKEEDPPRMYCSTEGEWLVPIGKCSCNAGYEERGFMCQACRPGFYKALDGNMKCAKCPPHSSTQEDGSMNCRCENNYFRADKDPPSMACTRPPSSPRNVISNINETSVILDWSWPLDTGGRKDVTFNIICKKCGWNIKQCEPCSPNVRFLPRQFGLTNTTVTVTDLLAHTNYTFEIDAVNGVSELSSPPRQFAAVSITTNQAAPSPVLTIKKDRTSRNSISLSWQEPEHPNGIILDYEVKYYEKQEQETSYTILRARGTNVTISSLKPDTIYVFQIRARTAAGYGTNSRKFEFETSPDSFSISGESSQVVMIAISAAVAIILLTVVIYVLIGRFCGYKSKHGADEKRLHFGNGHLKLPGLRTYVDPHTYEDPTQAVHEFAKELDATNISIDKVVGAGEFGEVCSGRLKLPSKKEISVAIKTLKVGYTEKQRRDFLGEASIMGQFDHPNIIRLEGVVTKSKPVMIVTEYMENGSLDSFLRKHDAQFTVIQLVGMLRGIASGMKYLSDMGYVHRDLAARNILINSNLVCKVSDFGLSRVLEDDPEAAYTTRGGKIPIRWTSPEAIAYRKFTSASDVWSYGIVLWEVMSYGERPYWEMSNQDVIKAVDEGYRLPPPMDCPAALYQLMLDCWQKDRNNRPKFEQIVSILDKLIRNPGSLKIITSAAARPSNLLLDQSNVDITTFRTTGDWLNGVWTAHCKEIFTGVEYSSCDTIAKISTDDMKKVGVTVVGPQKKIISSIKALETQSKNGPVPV

[2] = biological target: T1, EphA3 (human (endogenous in primary GBM cultures)); test: co-IP; immunoprecipitation of EphA3 from 1 mg of lysate from four early passage primary GBM cultures; Protein G only as control; blotted for EphA2, EphA3 and glycosylated αDG

EGFR (from UniProt P00533 25-1210) (receptor)
binding [1]: binds

EphA2 (from UniProt P29317 24-976) (receptor)
binding [2]: binds

B1: glycosylated α-dystroglycan (protein, UniProt Q14118 30-653)
chain: HWPSEPSEAVRDWENQLEASMHSVLSDLHEAVPTVVGIPDGTAVVGRSFRVTIPTDLIASSGDIIKVSAAGKEALPSWLHWDSQSHTLEGLPLDTDKGVHYISVSATRLGANGSHIPQTSSVFSIEVYPEDHSELQSVRTASPDPGEVVSSACAADEPVTVLTVILDADLTKMTPKQRIDLLHRMRSFSEVELHNMKLVPVVNNRLFDMSAFMAGPGNAKKVVENGALLSWKLGCSLNQNSVPDIHGVEAPAREGAMSAQLGYPVVGWHIANKKPPLPKRVRRQIHATPTPVTAIGPPTTAIQEPPSRIVPTPTSPAIAPPTETMAPPVRDPVPGKPTVTIRTRGAIIQTPTLGPIQPTRVSEAGTTVPGQIRPTMTIPGYVEPTAVATPPTTTTKKPRVSTPKPATPSTDSTTTTTRRPTKKPRTPRPVPRVTTKVSITRLETASPPTRIRTTTSGVPRGGEPNQRPELKNHIDRVDAWVGTYFEVKIPSDTFYDHEDTTTDKLKLTLKLREQQLVGEKSWVQFNSNSQLMYGLPDSSHVGKHEYFMHATDKGGLSAVDAFEIHVHRRPQGDRAPARFKAKFVGDPALVLNDIHKKIALVKKLAFAFGDRNCSTITLQNITRG
modifications: glycosylated (glycan moieties on αDG recognised by the IIH6 mAb)
binding [2]: binds
